In the supplement of paper PMC8256030:
Where “and” joins values, the source holds several entries; their conditions need not be identical. Equal values may be shown once. The list shows a part of the results. Repeats in this data set agree poorly, so a single value says little.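 HEK293T cells were given each compound shortly before transfection with a reporter in which red mCherry is followed by the SARS-CoV-2 frameshift element and then GFP in the −1 frame, so GFP appears only after frameshifting.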

Test system: HEK293T
Assay: percent viability (nuclei count) relative to control; higher = more viable cells
Conditions: 10 µM; 24 h

Row | Compound | percent viability
1 | CCCN[C@H]1CCc2nc(N)sc2C1 [Pramipexole] | 151%
2 | CCCOc1ccc(S(=O)(=O)NCCC2CCCN2C)cc1-c1nc2c(CCC)nn(C)c2c(=O)[nH]1 (centres undefined) [udenafil] | 334%
3 | Nc1nc(N)nc(-c2cc(Cl)ccc2Cl)n1 [irsogladine] | 290% and 233%
4 | COc1cccc(OC)c1C(=O)N[C@@H]1C(=O)N2[C@@H]1SC(C)(C)[C@@H]2C(=O)O | 149%
5 | Cc1scc2c1N(C(=O)CN1CCN(C)CC1)c1ccccc1NC2=O [Telenzepine·2HCl] | 124%
6 | CN(C)CCO/N=C(/C=C/c1ccc(O)cc1)c1ccccc1F [eplivanserin] | 209%
7 | Nc1nc(O)c2ncn(CCC(CO)CO)c2n1 [penciclovir] | 259%
8 | Nc1c(CC(=O)O)cccc1C(=O)c1ccccc1 [amfenac] | 78.9%
9 | NC(=O)N1c2ccccc2CC(=O)c2ccccc21 [oxcarbazepine] | 348% and 243%
10 | Cn1nc(-c2cccc(F)c2)n(C)c1=S [suritozole] | 290%
11 | CC1CCCC(C)N1CCCC(O)(c1ccccc1)c1ccccn1 (centres undefined) [pirmenol] | 188%
12 | CO[C@@H]1[C@@H](OC(N)=O)[C@@H](O)[C@H](Oc2ccc3c(O)c(NC(=O)c4ccc(O)c(CC=C(C)C)c4)c(=O)oc3c2C)OC1(C)C [Novobiocin·Na] | 205%
13 | CC1CC(=O)NN=C1c1ccc(NN=C(C#N)C#N)cc1 (centres undefined) [simendan] | 52%
14 | C=C1c2cccc(O)c2C(O)=C2C(=O)[C@]3(O)C(O)=C(C(N)=O)C(=O)[C@@H](N(C)C)[C@@H]3[C@@H](O)[C@H]12 | 123%
15 | CCCCCCCCCCCCCCCC(=O)NCCC[N+](C)(C)CC(=O)[O-] [pendecamaine] | 208%
16 | COC(=O)C1=C(C)NC(C)=C(C(=O)OC(C)C)C1c1cccc2nonc12 (centres undefined) [isradipine] | 251%
17 | CC(N)C12CC3CC(CC(C3)C1)C2 (centres undefined) [Rimantadine] | 146%

Two entries from above, set out differently:
Cn1nc(-c2cccc(F)c2)n(C)c1=S [suritozole]
  percent viability: 290%
CC1CCCC(C)N1CCCC(O)(c1ccccc1)c1ccccn1 (centres undefined) [pirmenol]
  percent viability: 188%

(next part)

Row | Compound | percent viability
18 | OCCN1CCN(CCCN2c3ccccc3Sc3ccc(C(F)(F)F)cc32)CC1 [fluphenazine] | 194% and 470%
19 | Cc1ccc(Cl)c(Nc2ccccc2C(=O)O)c1Cl | 238%
20 | CCCCc1oc2ccc(NS(C)(=O)=O)cc2c1C(=O)c1ccc(OCCCN(CCCC)CCCC)cc1 [dronedarone] | 453%
21 | CN1[C@@H]2CC[C@H]1C[C@@H](OC(=O)c1c[nH]c3ccccc13)C2 | 166%
22 | CCCCCCCC/C=C\CCCCCCCC(=O)O.NCCO | 129%
23 | CN1CCN(C2=Nc3ccccc3Sc3ccc(Cl)cc32)CC1 [clotiapine] | 333%
24 | CO[C@@H]1[C@@H](OC(N)=O)[C@@H](O)[C@H](Oc2ccc3c(O)c(NC(=O)c4ccc(O)c(CC=C(C)C)c4)c(=O)oc3c2C)OC1(C)C [novobiocin] | 194%
25 | O=C(Nc1cc(Cl)cc(Cl)c1O)c1c(O)c(Cl)cc(Cl)c1Cl [oxyclozanide] | 257%
26 | Nc1nc(=O)c2ncn([C@@H]3C[C@H](CO)[C@H]3CO)c2[nH]1 [lobucavir] | 173%
27 | CCOC(=O)[C@H](CCc1ccccc1)N[C@@H](C)C(=O)N1CCC[C@H]1C(=O)O [enalapril] | 81.7% and 208%
28 | CO[C@H]1C[C@@H]2CC[C@@H](C)[C@@](O)(O2)C(=O)C(=O)N2CCCC[C@H]2C(=O)O[C@H]([C@H](C)C[C@@H]2CC[C@@H](O)[C@H](OC)C2)CC(=O)[C@H](C)/C=C(\C)[C@@H](O)[C@@H](OC)C(=O)[C@H](C)C[C@H](C)/C=C/C=C/C=C/1C [Rapamycin] | 179%
29 | CC(C)(C)C(=O)OCOP(=O)(COCCn1cnc2c(N)ncnc21)OCOC(=O)C(C)(C)C [Hepsera] | 172%
30 | OC1C(O)C(O)C(O)C(O)C1O (centres undefined) | 139%
31 | Cc1ccc2c(Br)cc(Br)c(OC(=O)c3ccccc3)c2n1 [broxaldine] | 339%
32 | Cc1c2oc3c(C)ccc(C(=O)N[C@@H]4C(=O)N[C@H](C(C)C)C(=O)N5CCC[C@H]5C(=O)N(C)CC(=O)N(C)[C@@H](C(C)C)C(=O)O[C@@H]4C)c3nc-2c(C(=O)N[C@@H]2C(=O)N[C@H](C(C)C)C(=O)N3CCC[C@H]3C(=O)N(C)CC(=O)N(C)[C@@H](C(C)C)C(=O)O[C@@H]2C)c(N)c1=O [dactinomycin] | 12.5%
33 | CN(C)c1ccc(O)c2c1C[C@H]1C[C@H]3[C@H](N(C)C)C(=O)C(C(N)=O)=C(O)[C@@]3(O)C(=O)C1=C2O | 265%
34 | c1cnc(N2CCN(Cc3ccc4c(c3)OCO4)CC2)nc1 [Piribedil·2HCl] | 253%
